Paper PMC5996148
This is one part of the list.

Legend:
Test in all cases: protein microarray (ProtoArray v5.0), streptavidin-Alexa Fluor 647
Details in all cases: 3'-biotin; 20 mM Tris (pH 7.5), 5 mM MgCl2, 100 mM KCl, 0.1% Tween-20, A/T-rich and random oligonucleotide blockers; temperature not stated; high values mean tight binding
[1] = system: Sodium channel subunit beta-1 (human)
[2] = system: Sodium/glucose cotransporter 2 (human)
[3] = system: Solute carrier family 22 member 12 (human)
[4] = system: Solute carrier family 35 member E2 (human)
[5] = system: Solute carrier family 35 member F2 (human)
[6] = system: Sperm protein associated with the nucleus on the X chromosome N4 (human)
[7] = system: Spermatid nuclear transition protein 4 (human)
[8] = system: Spermatogenesis- and oogenesis-specific basic helix-loop-helix-containing protein 2 (human)
[9] = system: Spermatogenesis-associated protein 7 (human)
[10] = system: Spermine synthase (human)
[11] = system: StAR-related lipid transfer protein 4 (human)
[12] = system: StAR-related lipid transfer protein 5 (human)
[13] = system: Stathmin (human)
[14] = system: Sterol-4-alpha-carboxylate 3-dehydrogenase, decarboxylating (human)
[15] = system: Suppressor of SWI4 1 homolog (human)
[16] = system: Suprabasin (human)
[17] = system: Synaptonemal complex protein 2-like (human)
[18] = system: Syndecan-1 (human)
[19] = system: Synembryn-A (human)
[20] = system: T-complex protein 11-like protein 2 (human)

## GGTGACAGGGGTATGGGGAGGGG [G4-2 biotinylated (Ct1)]
[1]
  binding signal: -0.383 z-score
[2]
  binding signal: -0.386 z-score
[3]
  binding signal: -0.388 z-score
[4]
  binding signal: -0.382 z-score
[5]
  binding signal: -0.376 z-score
[6]
  binding signal: 5.47 z-score
[7]
  binding signal: 4.07 z-score
[8]
  binding signal: -0.384 z-score
[9]
  binding signal: -0.399 z-score
[10]
  binding signal: -0.386 z-score
[11]
  binding signal: -0.389 z-score
[12]
  binding signal: -0.376 z-score
[13]
  binding signal: -0.365 z-score
[14]
  binding signal: -0.383 z-score
[15]
  binding signal: 3.61 z-score
[16]
  binding signal: -0.401 z-score
[17]
  binding signal: -0.369 z-score
[18]
  binding signal: -0.373 z-score
[19]
  binding signal: -0.391 z-score
[20]
  binding signal: -0.39 z-score
